Results are given in words; binding and its absence hold for the method and conditions named. In cells and extracts the contact can be indirect. Some results given as binding are weak or reduced against the parent protein; the word gives no strength.
Assays:
[1] = molecular target: HNRNPC (human (endogenous in HEK293T, HepG2, A431)) (UniProt P07910); test: co-IP
[2] = molecular target: T1, HNRNPM (human (endogenous in HEK293T)) (UniProt P52272); test: co-IP
T1 sequence: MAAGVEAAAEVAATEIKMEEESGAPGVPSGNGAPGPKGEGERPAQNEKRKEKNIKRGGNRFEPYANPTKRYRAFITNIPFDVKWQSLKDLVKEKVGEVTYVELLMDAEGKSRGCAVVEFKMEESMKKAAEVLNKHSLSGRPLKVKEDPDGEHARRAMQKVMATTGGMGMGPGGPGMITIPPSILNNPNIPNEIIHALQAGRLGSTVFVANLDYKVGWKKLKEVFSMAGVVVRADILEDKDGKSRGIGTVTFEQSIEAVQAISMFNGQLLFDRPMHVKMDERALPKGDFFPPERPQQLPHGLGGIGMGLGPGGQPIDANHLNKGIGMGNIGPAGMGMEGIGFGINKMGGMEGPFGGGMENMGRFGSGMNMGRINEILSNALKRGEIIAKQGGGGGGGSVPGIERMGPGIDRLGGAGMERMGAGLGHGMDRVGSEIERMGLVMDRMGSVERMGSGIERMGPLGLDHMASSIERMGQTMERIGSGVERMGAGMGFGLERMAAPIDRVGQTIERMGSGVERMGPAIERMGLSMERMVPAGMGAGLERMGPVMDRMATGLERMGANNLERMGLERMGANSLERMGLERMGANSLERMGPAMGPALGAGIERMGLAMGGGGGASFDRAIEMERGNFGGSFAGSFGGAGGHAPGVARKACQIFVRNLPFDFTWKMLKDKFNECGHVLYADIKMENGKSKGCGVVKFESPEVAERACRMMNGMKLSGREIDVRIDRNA

Amino acid sequences for entries named in this document (tags omitted).
UniProt P07910: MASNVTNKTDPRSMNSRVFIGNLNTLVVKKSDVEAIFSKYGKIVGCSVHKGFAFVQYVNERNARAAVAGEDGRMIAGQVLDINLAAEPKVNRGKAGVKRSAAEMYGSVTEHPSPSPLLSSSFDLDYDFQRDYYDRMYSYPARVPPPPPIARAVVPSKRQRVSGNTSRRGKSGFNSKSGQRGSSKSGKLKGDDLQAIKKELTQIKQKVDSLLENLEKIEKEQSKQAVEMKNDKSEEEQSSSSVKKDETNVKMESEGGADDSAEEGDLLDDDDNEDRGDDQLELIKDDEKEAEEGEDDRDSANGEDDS
UniProt Q12905: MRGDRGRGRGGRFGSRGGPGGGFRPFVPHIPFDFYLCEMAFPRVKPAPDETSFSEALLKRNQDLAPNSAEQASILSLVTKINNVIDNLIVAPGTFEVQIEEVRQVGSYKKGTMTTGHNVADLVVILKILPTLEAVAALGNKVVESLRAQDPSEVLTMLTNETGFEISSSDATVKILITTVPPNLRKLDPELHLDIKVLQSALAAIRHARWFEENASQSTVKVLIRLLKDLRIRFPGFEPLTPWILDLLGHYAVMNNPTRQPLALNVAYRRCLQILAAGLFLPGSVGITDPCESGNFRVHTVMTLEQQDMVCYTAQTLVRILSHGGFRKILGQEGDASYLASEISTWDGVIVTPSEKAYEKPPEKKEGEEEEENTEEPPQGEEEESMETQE

binding [1]: binds | binding [2]: binds
Substance: ILF2 (from UniProt Q12905 1-390)
